Measured values as given in publication doi:10.1101/2023.09.04.556101.
Read-outs that look alike come from different tables or passages of the source. No constants are given. Whether binding was seen depends on the method and setting. In cells and extracts the contact can be indirect. Some entries that bind do so weakly or less than the wild type.

Protein sequences, listed by entry. Tags and fused reporters are not part of them.
UniProt Q92826: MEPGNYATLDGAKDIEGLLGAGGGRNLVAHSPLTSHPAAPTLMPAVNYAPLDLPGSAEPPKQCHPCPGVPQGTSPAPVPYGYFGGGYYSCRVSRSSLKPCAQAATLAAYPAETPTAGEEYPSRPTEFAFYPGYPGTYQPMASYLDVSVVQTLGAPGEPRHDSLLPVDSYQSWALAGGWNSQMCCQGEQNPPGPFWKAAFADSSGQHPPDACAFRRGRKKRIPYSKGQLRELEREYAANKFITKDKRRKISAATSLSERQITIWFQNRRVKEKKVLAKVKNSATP
UniProt Q92925: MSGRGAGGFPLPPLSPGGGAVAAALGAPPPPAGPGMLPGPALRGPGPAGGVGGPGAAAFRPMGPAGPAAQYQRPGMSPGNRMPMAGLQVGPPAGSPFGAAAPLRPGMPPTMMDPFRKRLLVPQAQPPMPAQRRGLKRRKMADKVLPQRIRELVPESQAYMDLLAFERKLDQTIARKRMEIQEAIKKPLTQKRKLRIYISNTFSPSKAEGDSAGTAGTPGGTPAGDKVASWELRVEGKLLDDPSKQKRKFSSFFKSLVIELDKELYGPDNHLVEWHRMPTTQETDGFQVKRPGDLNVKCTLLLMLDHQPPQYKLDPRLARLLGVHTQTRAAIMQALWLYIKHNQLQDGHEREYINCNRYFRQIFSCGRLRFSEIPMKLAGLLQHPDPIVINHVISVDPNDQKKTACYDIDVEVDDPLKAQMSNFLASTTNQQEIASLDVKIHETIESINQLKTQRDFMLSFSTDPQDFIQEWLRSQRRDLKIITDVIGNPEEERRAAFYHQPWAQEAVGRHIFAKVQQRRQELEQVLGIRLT

Columns and labels:
Flag-HOXB13 = Flag-HOXB13 (UniProt Q92826); experiment: co-IP
[1] = biological target: HOXB13 (human (endogenous in LNCaP, 22Rv1, PC3 and human prostate tissue)) (UniProt Q92826); experiment: proximity ligation
FL-HOXB13 = FL-HOXB13 (UniProt Q92826); experiment: proximity ligation
[2] = biological target: HOXB13 (human (endogenous in LNCaP, 22Rv1, PC3 and human prostate tissue)) (UniProt Q92826); experiment: proximity ligation; remark: listed apart in the source

binding (Flag-HOXB13)	binding [1]	binding (FL-HOXB13)	binding [2]	Substance
binds				Myc-His-SMARCD2 (from UniProt Q92925 1-531)
	binds	binds	binds	SMARCD2 (from UniProt Q92925 1-531)
